Measurements taken from patent publication US20120213786A1 (ONCOMED PHARMACEUTICALS, published 2012).
These are yes or no findings as the source states them, for the method shown. Some results given as binding are weak or reduced against the parent protein; the word gives no strength.

T1: recombinant human Notch1 protein (human, UniProt P46531 1426-1731, limits assumed)
T1 construct: also called antigen
T1 sequence (looked up): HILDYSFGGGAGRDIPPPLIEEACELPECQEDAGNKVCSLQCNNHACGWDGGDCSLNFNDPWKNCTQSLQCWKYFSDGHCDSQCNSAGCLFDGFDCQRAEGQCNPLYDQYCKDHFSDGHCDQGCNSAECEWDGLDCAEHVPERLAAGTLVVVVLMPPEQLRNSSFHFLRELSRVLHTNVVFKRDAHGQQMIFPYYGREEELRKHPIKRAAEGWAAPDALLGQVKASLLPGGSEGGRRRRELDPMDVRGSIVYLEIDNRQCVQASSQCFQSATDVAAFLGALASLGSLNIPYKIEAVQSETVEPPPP

B1: 52M51-H4 humanized heavy chain co-expressed with the murine 52M51 light chain (antibody, human IgG2, V domains shown)
VH: QVQLVQSGAEVKKPGASVKISCKVSGYTLRGYWIEWVRQAPGKGLEWIGQILPGTGRTNYNEKFKGRVTMTADTSTDTAYMELSSLRSEDTAVYYCARFDGNYGYYAMDYWGQGTTVTVSS
VL: QAVVTQESALTTSPGETVTLTCRSSTGAVTTSNYANWVQEKPDHLFTGLIGGTNNRAPGVPARFSGSLIGDKAALTITGAQTEDEAIYFCALWYSNHWVFGGGTKLTVLG
B2: humanized antibody 52M51H4L3 (antibody, human IgG2, lambda, V domains shown)
VH: B1 VH
VL: SQAVVTQEPSLTVSPGGTVTLTCRSSTGAVTTSNYANWFQQKPGQAPRTLIGGTNNRAPGVPARFSGSLLGGKAALTLSGAQPEDEAEYYCALWYSNHWVFGGGTKLTVLG
notes: Heavy chain 52M51-H4 (human IgG2 constant region) with light chain 52M51 L3 (human IgLC1 constant region); also called humanized variant of 52M51; ATCC PTA-9549
B3: humanized antibody 52M51H4L4 (antibody, human IgG2, lambda, V domains shown)
VH: B1 VH
VL: SQTVVTQEPSFSVSPGGTVTLTCRSSTGAVTTSNYANWYQQTPGQAPRTLIGGTNNRAPGVPDRFSGSILGNKAALTITGAQADDESDYYCALWYSNHWVFGGGTKLTVLG
notes: Heavy chain 52M51-H4 (human IgG2 constant region) with light chain 52M51 L4 (human IgLC1 constant region)

Columns and labels:
[1] = target: T1, recombinant human Notch1 protein; test: ELISA of conditioned medium of HEK 293 cells co-transfected with the humanized heavy chain and the murine 52M51 light chain
[2] = target: T1, recombinant human Notch1 protein; test: ELISA of conditioned medium of HEK293 cells co-transfected with 52M51-H4 and the candidate humanized light chain

Row | Binder | binding [1] | binding [2]
1 | B1 | binds | 
2 | B2 |  | binds
3 | B3 |  | binds
